The nature of the test: qHTS Assay for Lipid Storage Modulators in Drosophila S3 Cells.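 As to cell number change: cells counted by Cell Tracker Red CMTPX staining in the red channel.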 Conditions: BODIPY lipid droplet fluorescence, 18-24 h; for cell number change: measured here: cell count max response, cells fed with added oleic acid. An outline of the steps: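 Drosophila S3 cells loaded with oleic acid (400 uM, as added) and compounds at several concentrations; lipid droplets imaged by 488-nm laser-scanning cytometry, 500–530 nm intensity and object ratio to cell channel. Percent activity normalized to 20 uM Triacsin C.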

Setting [1] is: measured here: cell number channel AC50, cells fed with added oleic acid.
[2] abbreviates: measured here: lipid fluorescence (Fed channel) AC50, cells fed with added oleic acid.

Some of the results follow. These are further read-outs of the screen, such as a control signal, another cell line or another target. No call is given for them. Most of these compounds were active or inconclusive in the main read-out, so they are no random draw. Potencies come from curve fits of mixed quality, noted in brackets.

In PubChem BioAssay AID2685 (National Center for Advancing Translational Sciences (NCATS), 2010) one finds AC50 and cell number change data, which are given here for 59 compounds.

As usually defined, the AC50 is the midpoint of the concentration-response curve, whichever way the signal moves. High values mean weaker potency, low ones greater potency.

Consider `CNc1nnc(-c2cccc(N(C)C)c2)s1`, for which the AC50 under setting [1] is 6.51 µM [rising, single point].
For `Cn1c(C(=O)N2CCN(C3CCCCC3)CC2)cc2c(=O)n(C)c3ccccc3c21`, the cell number change came out at 1.15%.
Consider `Cc1ccc(C(C)C)c(OCCCN(C)Cc2ccccc2)c1`, for which the cell number change is -72.1%. In addition, under setting [1], the half-maximal activity concentration (AC50) is 20.6 µM [falling, partial curve]. Under setting [2], the AC50 is 16.4 µM [falling, partial curve].
As to `COc1ccccc1CNc1ncccc1[N+](=O)[O-]`, the cell number change stood at 25.9%. Also, the AC50 under setting [2] was 1.3 µM [rising, full curve, poor fit].
Turning to `O=C(Nc1cccc(Cl)c1)C1COc2ccccc2O1` (stereo not drawn), the cell number change was -23.1%.
In the case of `COC(=O)CN1C(=O)S/C(=C/c2ccc(N3CCCCC3)o2)C1=O`, the cell number change is -15.3%. Also, the AC50 under setting [2] was 20.6 µM [falling, partial curve, poor fit].
Take `Nc1nc(N)nc(COc2ccccc2)n1`: the cell number change came out at 8.65%. Also, under setting [1], the AC50 is 0.259 µM [rising, partial curve, poor fit].
On to `CC(c1ccco1)N(C(=O)c1ccc(C#N)cc1)c1ccccn1` (stereo not drawn), for which the cell number change turned out to be 2.25%. The concentration at half-maximal activity (AC50) under setting [1] is 4.11 µM [falling, single point]. Besides, under setting [2], the AC50 is 18.4 µM [falling, partial curve].
In the case of `NC(=O)C(c1ccc(F)cc1)c1ccc(C(=O)c2ccccc2)cc1` (stereo not drawn), the cell number change was -20.7%. Besides, under setting [2], the AC50 was 7.31 µM [falling, single point].
Turning to `O=C(/C=C/c1cccs1)NNC(=O)c1ccccc1`, the cell number change came out at 1.91%. Under setting [2], the AC50 was 0.103 µM [rising, full curve, poor fit].
Turning to `CCOc1ccc2[nH]c3c(=O)n(CCc4ccc(OC)cc4)cnc3c2c1`, the cell number change is 5.7%. In addition, the AC50 under setting [2] is 0.82 µM [rising, partial curve].
As to `Cc1c(Cl)cccc1Nc1nc(N)nc(CN2CCc3ccccc3C2)n1`, the cell number change came out at 30.3%. The AC50 under setting [1] was 0.0517 µM [rising, full curve, poor fit]. Moreover, the AC50 under setting [2] is 0.103 µM [rising, full curve].
As to `COc1cccc(NC(=O)C(C)C)c1`, the cell number change is -26.5%. Moreover, the concentration at half-maximal activity (AC50) under setting [1] was 1.3 µM [falling, full curve, poor fit].
With `COc1ccc(C(=O)Nn2c(SCc3cccc([N+](=O)[O-])c3)nc3ccccc3c2=O)cc1`, the cell number change was found to be 4.28%. The AC50 under setting [2] was 29.1 µM [falling, single point].
For `CCCC(=O)Nc1ccc2c(c1)nc1n2CCSC1`, the cell number change came out at 12.9%. The AC50 under setting [2] was 0.00517 µM [rising, full curve, poor fit].
Regarding `CC(C)(C)c1ccc(C(=O)c2c[nH]c(C(=O)NCc3cccs3)c2)cc1`, the cell number change was -49.6%. In addition, under setting [1], the AC50 was 32.6 µM [falling, single point].
As for `CCOc1cc(/C=N\NC(=O)CN2CCOCC2)ccc1OCc1ccc(F)cc1`, the cell number change was -50%. The AC50 under setting [1] was 18.4 µM [falling, single point].
In the case of `O=C(O)c1c[nH]c2c(C(F)(F)F)cccc2c1=O`, the cell number change turned out to be 12.9%. Also, the AC50 under setting [2] is 29.1 µM [falling, partial curve].
`Cc1coc2c(C)c3oc(=O)c(CCC(=O)NCCCN4CCOCC4)c(C)c3cc12`: the cell number change stood at 2.91%. In addition, the AC50 under setting [2] is 29.1 µM [falling, single point].
Consider `S=C(Nc1ccccc1Cl)NC1CCCCCC1`, for which the cell number change was -15.7%. For the same compound, the half-maximal activity concentration (AC50) under setting [1] is 0.00461 µM [falling, full curve, poor fit].
On to `COC(=O)/C(C(C)=O)=C(\C=C\N(C)C)N(C)C`, for which the cell number change is -81.3%. For the same compound, under setting [1], the AC50 was 23.1 µM [falling, partial curve, poor fit].
`COC(C[C@H]1O[C@H]1[C@@H](O)[C@@H](C)OCc1ccccc1)OC`: the cell number change is 10.8%. Also, under setting [2], the AC50 was 6.51 µM [rising, single point].
For the compound `O=C(c1oc(=O)c2ccccc2c1-c1ccccc1)N1CCN(C2CCCCC2)CC1`, the cell number change worked out at 30.4%. In addition, the AC50 under setting [1] is 6.51 µM [rising, single point].
Turning to `Cc1c(CC(=O)NCC(=O)NCC(=O)O)c(=O)oc2c(C)c3oc4c(c3cc12)CCCC4`, the cell number change was -1.8%. For the same compound, the AC50 under setting [2] is 5.8 µM [rising, full curve].
In the case of `Cc1ccc(C)c(S(=O)(=O)N2CCN(c3nc(-c4cccnc4)nc4ccccc34)CC2)c1`, the cell number change was -2.49%. For the same compound, the AC50 under setting [2] is 16.4 µM [falling, single point].
As for `CCOC(=O)c1ccc2c(c1)n(CC)c(/C=C/N(C)c1ccccc1)[n+]2CC`, the cell number change was -35%. Further, under setting [1], the AC50 is 13 µM [falling, single point]. The AC50 under setting [2] was 20.6 µM [falling, partial curve].
`COc1ccc(Nc2nc(NCc3ccco3)nc(N)c2[N+](=O)[O-])cc1`: the cell number change was 17.4%. In addition, under setting [1], the concentration at half-maximal activity (AC50) was 6.51 µM [falling, single point]. For the same compound, the AC50 under setting [2] was 6.51 µM [falling, single point].
As for `CCC(NC(=O)CN1CCN(C(=O)c2cccs2)CC1)c1ccc(C)cc1` (stereo not drawn), the cell number change amounted to 3.63%. The AC50 under setting [2] is 0.731 µM [falling, single point].
Take `O=[N+]([O-])c1cccc(S(=O)(=O)N2CCCCCC2)c1`: the cell number change is 59%. In addition, under setting [1], the AC50 was 25.9 µM [rising, single point]. In addition, the AC50 under setting [2] was 6.51 µM [rising, single point].
For `Cc1cc(NC(=O)CN(C)CC(=O)Nc2ccc(F)c(F)c2F)no1`, the cell number change turned out to be 2.02%. In addition, the AC50 under setting [2] was 20.6 µM [falling, single point].
Consider `COc1cc(C(=S)N2CCOCC2)cc(OC)c1OC(=O)Cc1ccc(F)cc1`, for which the cell number change is -50%. For the same compound, under setting [1], the AC50 is 8.2 µM [falling, partial curve].
On to `O=C(NCCCn1ccnc1)c1cccc(S(=O)(=O)Nc2ccc(Br)cc2)c1`, for which the cell number change is -8.43%. Further, the AC50 under setting [1] was 0.0291 µM [falling, full curve, poor fit]. Further, the AC50 under setting [2] is 13 µM [falling, partial curve, poor fit].
For the compound `C=C(C)COc1ccc(-c2[nH]ncc2Oc2ccccc2OC)c(O)c1`, the cell number change is -55.8%. Besides, under setting [1], the AC50 is 13 µM [falling, partial curve]. Further, the AC50 under setting [2] was 23.1 µM [falling, partial curve].
As for `CCCCn1nc(C(=O)Nc2ccc(-n3cnnn3)cc2)c2ccccc2c1=O`, the cell number change stood at 25.3%. Under setting [1], the AC50 was 0.164 µM [rising, full curve, poor fit]. Further, the half-maximal activity concentration (AC50) under setting [2] was 16.4 µM [rising, partial curve].
As to `CC1(C)O[C@@H]2[C@H](O1)[C@@H](CO)O[C@H]2n1cnc2c(=O)[nH]cnc21`, the cell number change amounted to 6.88%. Also, the AC50 under setting [1] is 2.91 µM [falling, single point]. The AC50 under setting [2] was 1.03 µM [falling, partial curve].
Turning to `Cc1ccc(-c2ccc(CCC(=O)O)n2-c2cccc(C(=O)O)c2)cc1`, the cell number change is -4.26%. Besides, under setting [2], the AC50 was 0.58 µM [falling, single point].
With `CCCNC(=O)N[C@@H](CCSC)C(=O)OC`, the cell number change was -33.5%. Also, the AC50 under setting [1] is 0.651 µM [falling, full curve].
On to `COc1ccccc1C(=O)NCC(=O)Nc1ccc2c(c1)CCC2`, for which the cell number change was -16%. Also, the AC50 under setting [2] was 5.8 µM [rising, full curve, poor fit].
With `C/C(=N\NC(=O)c1ccccc1O)c1ccc(NC(=O)Cc2ccccc2)cc1`, the cell number change is -4.82%.
For the compound `C=CCNc1ncnc2ccc(Br)cc12`, the cell number change was -36.2%. Also, under setting [1], the AC50 is 0.92 µM [falling, full curve, poor fit]. The AC50 under setting [2] is 32.6 µM [falling, single point].
On to `O=C(N/N=C/c1ccccc1OCc1ccccc1)c1cccnc1`, for which the cell number change was -50%. The AC50 under setting [1] was 1.16 µM [falling, full curve]. The AC50 under setting [2] was 8.2 µM [rising, partial curve, poor fit].
Turning to `O=C(Nc1ccccc1Cl)c1cc(S(=O)(=O)N2CCCC(C(=O)O)C2)ccc1F` (stereo not drawn), the cell number change turned out to be 39.9%.
`O=C(Nc1cc(N2CCOCC2)ncn1)c1ccccc1`: the cell number change was -32.1%. For the same compound, the AC50 under setting [1] was 1.46 µM [falling, partial curve].
Take `COc1ccc(C2NC(=O)c3ccccc3N2)cc1` (stereo not drawn): the cell number change is -55.2%. Besides, the AC50 under setting [1] is 13 µM [falling, partial curve]. Further, the AC50 under setting [2] was 10.3 µM [falling, partial curve].
For `COc1ccc(S(=O)(=O)N2CCN3CCCC3C2)cc1` (stereo not drawn), the cell number change was determined as 8.81%.
`CCCCn1cnc2c1c(=O)[nH]c(=O)n2CCCC`: the cell number change amounted to 47.8%. In addition, the AC50 under setting [1] is 25.9 µM [rising, single point].
As for `O=C(Nc1ccc(OCC(=O)N2CCOCC2)cc1)c1ccccc1F`, the cell number change worked out at 5.65%.
Same read-out and setting: the value for `COc1cc(C)ccc1Oc1ncnc(N)c1[N+](=O)[O-]` was 16.1%.
As to `C=CCn1c(SCC(=O)Nc2cc(C)ccc2OC)nnc1-c1ccco1`, the cell number change stood at 3.14%. The AC50 under setting [2] is 0.00517 µM [rising, full curve, poor fit].
Regarding `COc1ccc(NC(=O)c2ccc(Cl)c(S(=O)(=O)NCC3CCCO3)c2)c(OC)c1` (stereo not drawn), the cell number change is -41.6%. For the same compound, the AC50 under setting [1] was 14.6 µM [falling, single point].
`CCSc1nnc([C@H](Cc2ccccc2)NC(=O)OC(C)(C)C)o1`: the cell number change came to 16.7%. Besides, the AC50 under setting [2] is 6.51 µM [falling, single point].
As to `O=[N+]([O-])c1ccc(-c2nc(NCc3cccnc3)c3ccccc3n2)cc1`, the cell number change was -66.2%. Further, the AC50 under setting [1] was 10.3 µM [falling, partial curve]. Under setting [2], the AC50 is 9.2 µM [falling, partial curve].
Regarding `Cn1nnc(NC(=O)c2ccco2)n1`, the cell number change was found to be 81.2%.
As for `COc1cc2c(cc1NC(=O)CN1C(=O)NC3(CCc4ccccc43)C1=O)oc1ccccc12` (stereo not drawn), the cell number change turned out to be 30.7%. The AC50 under setting [1] is 3.26 µM [rising, full curve, poor fit]. Further, the AC50 under setting [2] is 4.11 µM [rising, single point].
For `O=C(Nc1cccc(C(=O)O)c1)/C(=C\c1ccco1)NC(=O)c1ccc(Br)o1`, the cell number change is 4.35%.
In the case of `COc1ccc(NC(=O)CNS(=O)(=O)c2ccc(Cl)cc2)cc1`, the cell number change is -22.3%. Moreover, under setting [2], the AC50 is 29.1 µM [falling, single point].
Regarding `CCNC(=S)N1CCN(CC)CC1`, the cell number change is -1.58%.
Take `C=CCn1c(=O)/c(=C2/SC(C)=C(C)N2CC)s/c1=C1/C(=O)N(CC)C(=S)N1c1ccccc1`: the cell number change worked out at 36.9%. In addition, the AC50 under setting [1] was 2.06 µM [rising, full curve]. Further, the AC50 under setting [2] is 3.66 µM [rising, partial curve].
Consider `C=C(NC(C)=O)c1c(F)cccc1F`, for which the cell number change came out at 7.34%. Further, the AC50 under setting [2] is 3.26 µM [rising, partial curve].
